± gives the standard deviation of the averaged measurements. Only a part is listed here, and it is no random draw. Most values lie at the level of the controls, where differences are scatter.
Compound: Nc1ncnc2c1ncn2[C@@H]1O[C@H](COP(=O)(O)OP(=O)(O)NP(=O)(O)O)[C@@H](O)[C@H]1O [adenylyl imidodiphosphate]
Experiment: NP40-soluble protein abundance relative to vehicle (solubility fold change) (ratio); higher = more soluble protein in presence of AMP-PNP
Procedure, shortened: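 Crude Jurkat lysate, prepared by Dounce homogenisation, was exposed to eight concentrations from 0.1 to 10 mM for 10 min at room temperature and then 3 min at 37 °C. Solubilisation used 0.8% NP40 with benzonase for 60 min at 4 °C, followed by ultracentrifugation and TMT labelling of the supernatant for LC-MS/MS. After vsn normalisation of intensities, each value is the fold change against the detergent-processed vehicle within each replicate, across three independent experiments.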

Sequences of proteins named here, by UniProt entry; tags and fusion partners are left off. A change or cut given only in a name is not applied to a line headed by its entry.
UniProt Q5T8D3: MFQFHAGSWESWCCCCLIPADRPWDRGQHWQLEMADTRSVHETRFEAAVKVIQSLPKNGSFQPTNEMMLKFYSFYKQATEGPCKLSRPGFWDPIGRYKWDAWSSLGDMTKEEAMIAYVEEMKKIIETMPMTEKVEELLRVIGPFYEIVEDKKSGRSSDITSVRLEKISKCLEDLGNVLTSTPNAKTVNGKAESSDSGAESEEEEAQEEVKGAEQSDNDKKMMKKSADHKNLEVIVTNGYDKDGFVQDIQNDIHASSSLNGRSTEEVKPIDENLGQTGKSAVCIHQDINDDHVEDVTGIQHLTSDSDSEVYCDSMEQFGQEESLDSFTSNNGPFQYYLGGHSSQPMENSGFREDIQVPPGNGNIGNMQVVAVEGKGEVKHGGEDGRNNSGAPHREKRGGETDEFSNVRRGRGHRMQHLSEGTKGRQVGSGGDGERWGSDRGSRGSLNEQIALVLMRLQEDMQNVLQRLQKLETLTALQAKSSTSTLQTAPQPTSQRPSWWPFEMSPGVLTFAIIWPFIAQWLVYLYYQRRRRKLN
UniProt Q8NBQ5: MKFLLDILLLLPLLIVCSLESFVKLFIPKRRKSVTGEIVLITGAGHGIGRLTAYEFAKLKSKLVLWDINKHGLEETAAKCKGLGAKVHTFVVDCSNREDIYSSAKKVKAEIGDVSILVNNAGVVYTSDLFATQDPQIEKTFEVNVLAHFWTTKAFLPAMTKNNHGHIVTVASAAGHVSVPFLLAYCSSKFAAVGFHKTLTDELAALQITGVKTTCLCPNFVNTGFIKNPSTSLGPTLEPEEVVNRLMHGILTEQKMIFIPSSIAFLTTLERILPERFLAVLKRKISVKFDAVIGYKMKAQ
UniProt Q5JSL3: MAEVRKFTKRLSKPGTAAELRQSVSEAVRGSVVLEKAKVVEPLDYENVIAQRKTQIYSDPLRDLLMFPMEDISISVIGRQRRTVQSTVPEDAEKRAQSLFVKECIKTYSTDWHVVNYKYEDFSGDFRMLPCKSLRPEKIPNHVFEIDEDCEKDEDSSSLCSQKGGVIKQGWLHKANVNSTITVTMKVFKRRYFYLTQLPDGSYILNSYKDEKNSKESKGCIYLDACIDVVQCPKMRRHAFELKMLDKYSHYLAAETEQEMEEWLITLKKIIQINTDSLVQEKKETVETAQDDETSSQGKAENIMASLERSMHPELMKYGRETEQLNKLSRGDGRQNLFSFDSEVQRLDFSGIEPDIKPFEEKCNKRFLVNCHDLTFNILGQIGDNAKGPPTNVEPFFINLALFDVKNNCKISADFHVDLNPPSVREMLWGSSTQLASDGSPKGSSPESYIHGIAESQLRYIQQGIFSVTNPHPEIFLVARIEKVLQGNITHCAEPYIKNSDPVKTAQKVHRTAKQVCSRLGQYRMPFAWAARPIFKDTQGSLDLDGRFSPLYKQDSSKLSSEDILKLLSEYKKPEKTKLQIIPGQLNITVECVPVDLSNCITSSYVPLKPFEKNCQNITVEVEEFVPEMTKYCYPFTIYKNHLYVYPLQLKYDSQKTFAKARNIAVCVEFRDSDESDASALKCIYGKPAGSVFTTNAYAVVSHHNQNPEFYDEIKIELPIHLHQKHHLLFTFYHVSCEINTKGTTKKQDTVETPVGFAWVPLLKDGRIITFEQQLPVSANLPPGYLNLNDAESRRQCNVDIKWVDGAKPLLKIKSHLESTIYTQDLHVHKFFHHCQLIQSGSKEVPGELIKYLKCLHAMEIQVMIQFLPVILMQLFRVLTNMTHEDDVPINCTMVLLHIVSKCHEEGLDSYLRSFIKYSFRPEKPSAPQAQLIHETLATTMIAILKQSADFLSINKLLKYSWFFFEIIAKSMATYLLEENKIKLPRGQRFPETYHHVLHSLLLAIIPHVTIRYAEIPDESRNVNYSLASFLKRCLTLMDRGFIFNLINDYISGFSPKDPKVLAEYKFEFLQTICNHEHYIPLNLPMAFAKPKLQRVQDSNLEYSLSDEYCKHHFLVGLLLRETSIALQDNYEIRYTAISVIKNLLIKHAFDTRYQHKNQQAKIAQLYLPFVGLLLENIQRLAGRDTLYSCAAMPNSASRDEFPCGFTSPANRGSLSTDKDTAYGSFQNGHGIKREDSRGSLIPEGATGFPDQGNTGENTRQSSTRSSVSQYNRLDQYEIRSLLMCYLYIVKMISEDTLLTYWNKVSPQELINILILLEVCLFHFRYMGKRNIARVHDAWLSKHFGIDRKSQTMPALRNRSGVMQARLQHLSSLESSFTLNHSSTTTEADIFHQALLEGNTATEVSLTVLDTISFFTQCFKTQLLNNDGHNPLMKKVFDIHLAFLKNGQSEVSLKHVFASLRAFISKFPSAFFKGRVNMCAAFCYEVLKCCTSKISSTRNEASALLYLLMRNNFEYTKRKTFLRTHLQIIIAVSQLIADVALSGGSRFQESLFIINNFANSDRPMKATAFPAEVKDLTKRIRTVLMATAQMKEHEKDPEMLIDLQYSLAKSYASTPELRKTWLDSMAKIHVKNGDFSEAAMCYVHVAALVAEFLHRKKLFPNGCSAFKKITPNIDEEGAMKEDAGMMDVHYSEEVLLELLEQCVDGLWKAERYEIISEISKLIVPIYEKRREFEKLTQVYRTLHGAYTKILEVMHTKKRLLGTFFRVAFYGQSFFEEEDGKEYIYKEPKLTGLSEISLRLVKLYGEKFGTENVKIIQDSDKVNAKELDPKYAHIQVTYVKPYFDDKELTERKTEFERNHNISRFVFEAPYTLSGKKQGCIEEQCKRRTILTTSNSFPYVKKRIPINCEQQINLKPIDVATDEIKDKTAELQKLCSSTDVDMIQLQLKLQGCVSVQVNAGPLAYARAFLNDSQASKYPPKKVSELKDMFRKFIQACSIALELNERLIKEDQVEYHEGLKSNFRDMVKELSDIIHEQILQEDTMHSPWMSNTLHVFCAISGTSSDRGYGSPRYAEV
UniProt Q9BWE0: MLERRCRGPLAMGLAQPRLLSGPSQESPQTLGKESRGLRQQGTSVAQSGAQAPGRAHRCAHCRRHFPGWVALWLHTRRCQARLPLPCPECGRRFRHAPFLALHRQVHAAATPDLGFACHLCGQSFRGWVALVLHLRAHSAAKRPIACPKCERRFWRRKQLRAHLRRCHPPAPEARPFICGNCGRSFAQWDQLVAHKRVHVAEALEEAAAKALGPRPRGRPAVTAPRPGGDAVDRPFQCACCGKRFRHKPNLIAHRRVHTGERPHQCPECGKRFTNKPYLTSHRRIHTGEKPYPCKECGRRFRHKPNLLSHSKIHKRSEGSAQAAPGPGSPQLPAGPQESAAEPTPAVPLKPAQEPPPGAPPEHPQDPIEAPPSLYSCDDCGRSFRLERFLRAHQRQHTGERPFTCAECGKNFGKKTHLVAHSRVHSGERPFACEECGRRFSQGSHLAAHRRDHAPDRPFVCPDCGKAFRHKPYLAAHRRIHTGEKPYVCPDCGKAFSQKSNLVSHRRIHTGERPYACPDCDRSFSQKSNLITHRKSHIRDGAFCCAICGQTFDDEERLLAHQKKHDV
UniProt P49585: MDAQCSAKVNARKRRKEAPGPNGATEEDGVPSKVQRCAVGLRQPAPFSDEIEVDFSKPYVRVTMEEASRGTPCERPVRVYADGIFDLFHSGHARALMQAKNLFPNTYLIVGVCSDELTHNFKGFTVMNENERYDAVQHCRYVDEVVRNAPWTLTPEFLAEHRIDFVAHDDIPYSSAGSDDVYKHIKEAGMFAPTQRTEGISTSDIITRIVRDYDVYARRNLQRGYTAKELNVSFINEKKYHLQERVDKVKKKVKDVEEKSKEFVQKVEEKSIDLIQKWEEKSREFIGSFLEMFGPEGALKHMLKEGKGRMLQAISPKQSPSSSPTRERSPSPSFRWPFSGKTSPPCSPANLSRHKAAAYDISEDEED
UniProt P55854, whole entry: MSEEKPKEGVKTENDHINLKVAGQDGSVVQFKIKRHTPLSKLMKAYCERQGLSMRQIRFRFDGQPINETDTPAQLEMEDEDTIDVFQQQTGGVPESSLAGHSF
UniProt O76075: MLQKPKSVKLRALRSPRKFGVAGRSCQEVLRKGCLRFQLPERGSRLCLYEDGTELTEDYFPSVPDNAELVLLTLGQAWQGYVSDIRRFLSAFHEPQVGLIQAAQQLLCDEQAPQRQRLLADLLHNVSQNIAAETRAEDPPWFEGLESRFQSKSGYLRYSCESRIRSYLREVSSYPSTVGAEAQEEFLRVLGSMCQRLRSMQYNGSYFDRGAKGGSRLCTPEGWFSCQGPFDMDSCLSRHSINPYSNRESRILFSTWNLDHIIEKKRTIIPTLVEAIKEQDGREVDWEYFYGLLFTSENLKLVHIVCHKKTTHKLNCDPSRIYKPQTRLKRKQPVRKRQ
UniProt Q16774: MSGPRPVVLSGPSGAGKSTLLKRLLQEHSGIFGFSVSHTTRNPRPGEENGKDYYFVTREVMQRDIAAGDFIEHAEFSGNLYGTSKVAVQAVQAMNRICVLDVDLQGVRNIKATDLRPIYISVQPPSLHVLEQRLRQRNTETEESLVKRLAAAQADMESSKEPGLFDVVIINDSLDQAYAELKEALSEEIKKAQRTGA
UniProt Q9Y6A9: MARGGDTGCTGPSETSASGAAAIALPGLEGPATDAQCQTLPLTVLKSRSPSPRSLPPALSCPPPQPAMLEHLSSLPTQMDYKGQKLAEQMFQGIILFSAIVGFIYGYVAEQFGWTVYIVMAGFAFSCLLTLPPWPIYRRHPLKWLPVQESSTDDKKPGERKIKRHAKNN
UniProt O75718: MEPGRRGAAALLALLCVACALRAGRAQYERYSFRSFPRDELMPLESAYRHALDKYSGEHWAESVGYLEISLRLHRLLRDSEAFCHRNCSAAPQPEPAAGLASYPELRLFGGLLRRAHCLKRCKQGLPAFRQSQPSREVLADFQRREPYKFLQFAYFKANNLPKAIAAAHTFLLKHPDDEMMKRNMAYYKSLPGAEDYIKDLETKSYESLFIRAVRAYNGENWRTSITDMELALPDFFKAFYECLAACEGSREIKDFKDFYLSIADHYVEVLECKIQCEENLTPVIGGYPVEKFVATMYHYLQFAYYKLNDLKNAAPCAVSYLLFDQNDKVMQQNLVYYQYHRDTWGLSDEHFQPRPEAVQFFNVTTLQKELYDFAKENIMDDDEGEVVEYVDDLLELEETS
UniProt Q8WVV9: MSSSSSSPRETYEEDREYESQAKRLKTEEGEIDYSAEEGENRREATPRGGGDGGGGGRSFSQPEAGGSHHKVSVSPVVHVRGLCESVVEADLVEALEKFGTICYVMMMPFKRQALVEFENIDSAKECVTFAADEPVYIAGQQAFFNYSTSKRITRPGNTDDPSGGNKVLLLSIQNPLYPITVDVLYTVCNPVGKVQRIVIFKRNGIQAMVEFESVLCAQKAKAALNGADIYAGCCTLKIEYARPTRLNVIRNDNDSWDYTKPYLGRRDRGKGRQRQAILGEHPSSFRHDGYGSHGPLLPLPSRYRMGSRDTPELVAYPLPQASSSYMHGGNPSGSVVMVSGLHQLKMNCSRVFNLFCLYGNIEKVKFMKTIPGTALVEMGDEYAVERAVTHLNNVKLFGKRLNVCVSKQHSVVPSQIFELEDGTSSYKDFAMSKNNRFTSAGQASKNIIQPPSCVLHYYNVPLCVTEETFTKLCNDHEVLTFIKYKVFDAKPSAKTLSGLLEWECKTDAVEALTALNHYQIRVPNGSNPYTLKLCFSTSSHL
UniProt P63165, whole entry: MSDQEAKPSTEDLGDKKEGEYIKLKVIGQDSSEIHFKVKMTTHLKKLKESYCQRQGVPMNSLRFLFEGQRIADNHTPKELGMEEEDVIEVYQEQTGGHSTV
UniProt Q96MH6: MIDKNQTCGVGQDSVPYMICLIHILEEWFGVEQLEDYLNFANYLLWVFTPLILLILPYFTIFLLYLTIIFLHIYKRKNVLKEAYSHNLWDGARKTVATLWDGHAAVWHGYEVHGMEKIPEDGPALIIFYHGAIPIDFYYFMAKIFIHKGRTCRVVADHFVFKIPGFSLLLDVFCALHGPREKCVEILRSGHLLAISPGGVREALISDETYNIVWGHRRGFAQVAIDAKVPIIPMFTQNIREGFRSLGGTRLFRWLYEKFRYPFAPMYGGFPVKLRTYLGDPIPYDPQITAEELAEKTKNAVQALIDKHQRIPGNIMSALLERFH
UniProt Q96MF7: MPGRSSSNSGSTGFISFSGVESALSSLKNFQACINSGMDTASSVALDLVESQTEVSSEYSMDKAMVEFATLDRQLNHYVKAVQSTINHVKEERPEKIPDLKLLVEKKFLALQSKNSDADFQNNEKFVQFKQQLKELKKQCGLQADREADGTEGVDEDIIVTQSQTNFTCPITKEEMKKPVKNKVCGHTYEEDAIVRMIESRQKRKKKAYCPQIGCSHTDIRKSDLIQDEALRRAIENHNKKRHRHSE

C9JG32 and related entries (UniProt P43897)
NP40-soluble protein abundance (concentration: 0.1mM): 0.986 ± 0.021 | NP40-soluble protein abundance (concentration: 0.5mM): 1.01 ± 0.044

B4DV51 and related entries (UniProt P62826)
NP40-soluble protein abundance (concentration: 0.1mM): 1.01 ± 0.012 | NP40-soluble protein abundance (concentration: 0.5mM): 1.04 ± 0.05

B7Z2R7 and related entries (UniProt Q5T8D3)
NP40-soluble protein abundance (concentration: 0.1mM): 0.971 ± 0.01 | NP40-soluble protein abundance (concentration: 0.5mM): 0.984 ± 0.011

A8MVZ6 and related entries (UniProt Q96G01)
NP40-soluble protein abundance (concentration: 0.1mM): 1.01 ± 0.0047 | NP40-soluble protein abundance (concentration: 0.5mM): 0.982 ± 0.031

D6RD24 and related entries (UniProt Q7Z6J8)
NP40-soluble protein abundance (concentration: 0.1mM): 1.02 ± 0.013 | NP40-soluble protein abundance (concentration: 0.5mM): 0.9993 ± 0.0084

A6PVU7 and related entries (UniProt Q9P2M7)
NP40-soluble protein abundance (concentration: 0.1mM): 1.03 ± 0.031 | NP40-soluble protein abundance (concentration: 0.5mM): 1.03 ± 0.032

A8MTY9 and related entries (UniProt O14972)
NP40-soluble protein abundance (concentration: 0.1mM): 1.03 ± 0.022 | NP40-soluble protein abundance (concentration: 0.5mM): 0.9957 ± 0.0097

D6RCD0 and related entries (UniProt Q8NBQ5)
NP40-soluble protein abundance (concentration: 0.1mM): 1.02 ± 0.059 | NP40-soluble protein abundance (concentration: 0.5mM): 1.01 ± 0.028

C9JIZ6 and related entries (UniProt P07602)
NP40-soluble protein abundance (concentration: 0.1mM): 0.952 ± 0.029 | NP40-soluble protein abundance (concentration: 0.5mM): 1.01 ± 0.079

A6NIW2 and related entries (UniProt Q5JSL3)
NP40-soluble protein abundance (concentration: 0.1mM): 0.999 ± 0.048 | NP40-soluble protein abundance (concentration: 0.5mM): 0.937 ± 0.06

B1ALH6 and related entries (UniProt O14832)
NP40-soluble protein abundance (concentration: 0.1mM): 0.971 ± 0.024 | NP40-soluble protein abundance (concentration: 0.5mM): 0.971 ± 0.021

UniProt A2RUC4
NP40-soluble protein abundance (concentration: 0.1mM): 1 ± 0.026 | NP40-soluble protein abundance (concentration: 0.5mM): 0.966 ± 0.022

C9J713 and related entries (UniProt Q96IZ7)
NP40-soluble protein abundance (concentration: 0.1mM): 1.05 ± 0.021 | NP40-soluble protein abundance (concentration: 0.5mM): 1.02 ± 0.056

B5MCS2 and related entries (UniProt Q8WTS6)
NP40-soluble protein abundance (concentration: 0.1mM): 0.949 ± 0.07 | NP40-soluble protein abundance (concentration: 0.5mM): 0.898 ± 0.052

C9JKL2 and related entries (UniProt O95772)
NP40-soluble protein abundance (concentration: 0.1mM): 1 ± 0.034 | NP40-soluble protein abundance (concentration: 0.5mM): 1.01 ± 0.048

C9JYJ8 and related entries (UniProt Q9BWE0)
NP40-soluble protein abundance (concentration: 0.1mM): 0.981 ± 0.012 | NP40-soluble protein abundance (concentration: 0.5mM): 1 ± 0.017

C9JEJ2 and related entries (UniProt P49585)
NP40-soluble protein abundance (concentration: 0.1mM): 1.02 ± 0.018 | NP40-soluble protein abundance (concentration: 0.5mM): 0.992 ± 0.028

A8MU27 and related entries (UniProt P55854)
NP40-soluble protein abundance (concentration: 0.1mM): 0.9937 ± 0.0053 | NP40-soluble protein abundance (concentration: 0.5mM): 1.06 ± 0.06

B4DZS0 and related entries (UniProt O76075)
NP40-soluble protein abundance (concentration: 0.1mM): 1 ± 0.035 | NP40-soluble protein abundance (concentration: 0.5mM): 0.97 ± 0.052

UniProt B7ZLF3
NP40-soluble protein abundance (concentration: 0.1mM): 1 ± 0.058 | NP40-soluble protein abundance (concentration: 0.5mM): 1.02 ± 0.041

C9JAK5 and related entries (UniProt P18085)
NP40-soluble protein abundance (concentration: 0.1mM): 1.11 ± 0.048 | NP40-soluble protein abundance (concentration: 0.5mM): 1.04 ± 0.12

B1ANH0 and related entries (UniProt Q16774)
NP40-soluble protein abundance (concentration: 0.1mM): 1.003 ± 0.01 | NP40-soluble protein abundance (concentration: 0.5mM): 1.05 ± 0.026

C9JBL1 and related entries (UniProt Q9Y6A9)
NP40-soluble protein abundance (concentration: 0.1mM): 0.946 ± 0.018 | NP40-soluble protein abundance (concentration: 0.5mM): 1.02 ± 0.018

C9JP16 and related entries (UniProt O75718)
NP40-soluble protein abundance (concentration: 0.1mM): 1.03 ± 0.029 | NP40-soluble protein abundance (concentration: 0.5mM): 0.983 ± 0.02

B4DK77 and related entries (UniProt Q9H6K4)
NP40-soluble protein abundance (concentration: 0.1mM): 0.992 ± 0.04 | NP40-soluble protein abundance (concentration: 0.5mM): 1.03 ± 0.038

C9IYN3 and related entries (UniProt Q8WVV9+D6W592+C9IYN3)
NP40-soluble protein abundance (concentration: 0.1mM): 1 ± 0.018 | NP40-soluble protein abundance (concentration: 0.5mM): 0.985 ± 0.046

A6NF51 and related entries (UniProt O95861)
NP40-soluble protein abundance (concentration: 0.1mM): 0.999 ± 0.018 | NP40-soluble protein abundance (concentration: 0.5mM): 1.03 ± 0.031

B8ZZN6 and related entries (UniProt P63165)
NP40-soluble protein abundance (concentration: 0.1mM): 1.01 ± 0.037 | NP40-soluble protein abundance (concentration: 0.5mM): 1.06 ± 0.12

UniProt A5PLN9 and related entries
NP40-soluble protein abundance (concentration: 0.1mM): 1.01 ± 0.072 | NP40-soluble protein abundance (concentration: 0.5mM): 0.967 ± 0.05

E5RGT2 and related entries (UniProt Q96MH6)
NP40-soluble protein abundance (concentration: 0.1mM): 1.01 ± 0.056 | NP40-soluble protein abundance (concentration: 0.5mM): 1.01 ± 0.039

B1AMS2 and related entries (UniProt Q14141)
NP40-soluble protein abundance (concentration: 0.1mM): 0.984 ± 0.032 | NP40-soluble protein abundance (concentration: 0.5mM): 1.01 ± 0.031

E5RFJ1 and related entries (UniProt Q96MF7)
NP40-soluble protein abundance (concentration: 0.1mM): 1.01 ± 0.026 | NP40-soluble protein abundance (concentration: 0.5mM): 0.979 ± 0.028

B1AKP1 and related entries (UniProt O60636)
NP40-soluble protein abundance (concentration: 0.1mM): 1.03 ± 0.012 | NP40-soluble protein abundance (concentration: 0.5mM): 1 ± 0.019
